The text below walks through data of US20220064329A1.

Results are given in words; binding and its absence hold for the method and conditions named. Some binding calls cover weakened binding; strength is not graded here.

In the experiment the target is T1, TLT-1 37-mer stalk peptide (human).
T1 sequence (peptide): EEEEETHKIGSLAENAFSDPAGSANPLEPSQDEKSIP
The experiment in a line: gel filtration of Fab and stalk peptide mixed at 1:2 molar ratio. For orientation: In gel filtration, larger molecules generally elute earlier.

B1: Fab fragment with the VL and VH domains of mAb1076 (anti-TLT-1 Fab) (Fab, V domains shown)
VH: EVQLVESGGGLVQPGGSLRLSCAASGFTFSRYWMTWVRQAPGKGLVWVGEINPDSSTINYAPSVKGRFTISRDNAKNTLYLQMNSLRAEDTAVYYCASGVFTSWGQGTLVTVSS
VL: DIVMTQTPLSSPVTLGQPASISCRSSQSLVHRQGNTYFHWLQQRPGQPPRLLIYKVSNRFSGVPDRFSGSGAGTDFTLKISRVEAEDVGVYYCSQSTHVPYTFGQGTKLEIK
Turning to B1, the binding entry was “binds”.
